Measurements taken from the supplement of paper PMC7125110.
± gives the standard error. Many entries were measured with a wide error.

B1: glmS ribozyme (parent)
chain: AUAAAAGCGCCAGAACUACAGAAAUGUAGUUGACGAGGAGGAGGUUUAUCGAAUUUUCGGCGGAUGCCUCCAAA

Variants of: B1
Assay: kcat; higher = faster cleavage; RNA array
Details: with glucosamine-6-phosphate
Procedure, shortened: (§1)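 kcat and KM were obtained from weighted Michaelis–Menten fits across concentrations of kobs values. Those came from one- or two-exponential decay fits to per-tile medians normalised to baseline and to non-cleaving reference variants. The variants were barcoded ribozymes transcribed in situ by E. coli RNA polymerase on sequenced MiSeq chips and tracked through a hybridised Cy3 probe at 37 °C, with 40 μM to 10 mM glucosamine-6-phosphate in HEPES/KCl/Mg(OAc)2 buffer flowed in.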

| Variant | kcat |
| --- | --- |
| A12U A14G | 0.0488 ± 0.026 s⁻¹ |
| A12U A33U | 0.000444 ± 0.0001 s⁻¹ |
| A12U C16G | 0.0162 ± 0.013 s⁻¹ |
| A12U C16U | 0.124 ± 0.11 s⁻¹ |
| A12U C50U | 0.0012 ± 0.001 s⁻¹ |
| A12U G29U G59U C68G C70A | 3.34e-05 ± 1.4e-05 s⁻¹ |
| A12U U54A U69A | 0.000369 ± 0.00018 s⁻¹ |
| A12U U55A | 0.0609 ± 0.031 s⁻¹ |
| A12U U69G | 0.000139 ± 1.8e-05 s⁻¹ |
| G13A A53C | 0.000346 ± 0.00034 s⁻¹ |
| G13A C67U | 0.000696 ± 0.00054 s⁻¹ |
| G13A C68G C71G | 5.26e-05 ± 3.4e-05 s⁻¹ |
| G13A C71A | 0.00132 ± 0.00098 s⁻¹ |
| G13A U31G | 0.000328 ± 7.1e-05 s⁻¹ |
| G13A U47C | 8.51e-05 ± 5.3e-06 s⁻¹ |
| G13A U54A | 0.000832 ± 0.00029 s⁻¹ |
| G13A U56A C67A U69G | 6.61e-05 ± 3.9e-05 s⁻¹ |
| G13C G29C | 0.000144 ± 7.3e-05 s⁻¹ |
| G13C G59A | 1.57e-05 ± 1.5e-05 s⁻¹ |

| Variant | kcat |
| --- | --- |
| G13U A15G G32A C70G | 9.35e-05 ± 2.2e-06 s⁻¹ |
| G13U C67U C70U | 3.79e-05 ± 3e-05 s⁻¹ |
| G13U C68G | 2.36e-05 ± 6.5e-06 s⁻¹ |
| G13U G62U | < 1e-05 s⁻¹ |
| A14C C70A | 0.000106 ± 1.1e-05 s⁻¹ |
| A14C G32C C71U | 0.000558 ± 0.00035 s⁻¹ |
| A14C G40C | 0.000718 ± 6.3e-05 s⁻¹ |
| A14G A52G | 0.00672 ± 0.0038 s⁻¹ |
| A14G C67U | 0.0205 ± 0.012 s⁻¹ |
| A14G C68U | 0.00837 ± 0.0047 s⁻¹ |
| A14G G29A | 0.00517 ± 0.0029 s⁻¹ |
| A14G G41A | 0.00214 ± 0.0011 s⁻¹ |
| A14G U30G | 0.021 ± 0.015 s⁻¹ |
| A14G U55A A64C C70U | 0.00107 ± 0.00068 s⁻¹ |
| A14G U56G | 0.0818 ± 0.014 s⁻¹ |
| A14U A42G | 0.0156 ± 0.0054 s⁻¹ |
| A14U A53U C71U | 0.00782 ± 0.0074 s⁻¹ |
| A14U C34A A48G C68G C71A | 0.000597 ± 0.00036 s⁻¹ |
| A14U C67U C68G | 2.91e-05 ± 2.7e-05 s⁻¹ |

| Variant | kcat |
| --- | --- |
| A14U G41C C70G | 0.136 ± 0.11 s⁻¹ |
| A14U G66C | 0.000139 ± 1.3e-05 s⁻¹ |
| A14U U47C C58G C68G | 5.66e-05 ± 3.9e-05 s⁻¹ |
| A14U U56C | 0.000439 ± 0.00028 s⁻¹ |
| A14U U65A | 0.0015 ± 0.00017 s⁻¹ |
| A14U U65C | 8.95e-05 ± 1.3e-05 s⁻¹ |
| A14U U69C | 0.000771 ± 0.0004 s⁻¹ |
| A15C A33C | 6.42e-05 ± 3.3e-06 s⁻¹ |
| A15C A39G | 0.0139 ± 0.008 s⁻¹ |
| A15C C50G | 3.85e-05 ± 3.4e-05 s⁻¹ |
| A15C G38A U57G | < 1e-05 s⁻¹ |
| A15C U30C U31G U69G | 3.56e-05 ± 2.8e-05 s⁻¹ |
| A15C U56G | 0.00386 ± 0.0026 s⁻¹ |
| A15C U57C | 0.000166 ± 0.00014 s⁻¹ |
| A15C U69G | 3.35e-05 ± 1.8e-05 s⁻¹ |
| A15G A42G A53G | 0.0129 ± 0.0071 s⁻¹ |
| A15G A42U | 0.000248 ± 4.1e-05 s⁻¹ |
| A15G C16G C71G | 0.000103 ± 1.4e-05 s⁻¹ |
| A15G C58A C70U | 0.000287 ± 0.00015 s⁻¹ |

Look-ups from the results shown:
Under kcat, A15G C58A C70U has 0.000287 ± 0.00015 s⁻¹
Under kcat, A14U U69C has 0.000771 ± 0.0004 s⁻¹
Under kcat, A14G C67U has 0.0205 ± 0.012 s⁻¹
Under kcat, A14C G40C has 0.000718 ± 6.3e-05 s⁻¹

Variants of: B1
Assay: KM; higher = weaker cofactor use; RNA array
Details: with glucosamine-6-phosphate
Procedure, shortened: as §1

| Variant | KM |
| --- | --- |
| A12U A14G | 580 ± 370 µM |
| A12U A33U | 3790 ± 1500 µM |
| A12U C16U | 3010 ± 2900 µM |
| A12U U55A | 1150 ± 690 µM |
| A12U U69G | 437 ± 200 µM |
| G13A C67U | 10700 ± 10000 µM |
| G13A C71A | 68400 ± 58000 µM |
| G13A U31G | 11300 ± 3900 µM |
| G13A U47C | 7300 ± 1000 µM |
| G13A U54A | 3140 ± 2000 µM |
| G13C G29C | 5440 ± 5000 µM |
| G13U A15G G32A C70G | 405 ± 40 µM |
| A14C C70A | 413 ± 170 µM |
| A14C G32C C71U | 7870 ± 7400 µM |
| A14C G40C | 3650 ± 530 µM |
| A14G A52G | 4400 ± 3100 µM |
| A14G C67U | 1430 ± 1100 µM |
| A14G C68U | 1840 ± 1300 µM |
| A14G G29A | 459 ± 380 µM |

| Variant | KM |
| --- | --- |
| A14G G41A | 367 ± 280 µM |
| A14G U30G | 1080 ± 990 µM |
| A14G U55A A64C C70U | 2610 ± 2600 µM |
| A14G U56G | 1560 ± 320 µM |
| A14U A42G | 2710 ± 1300 µM |
| A14U C34A A48G C68G C71A | 16400 ± 15000 µM |
| A14U G41C C70G | 9200 ± 8700 µM |
| A14U G66C | 5220 ± 1100 µM |
| A14U U65A | 4460 ± 760 µM |
| A14U U65C | 698 ± 460 µM |
| A14U U69C | 613 ± 530 µM |
| A15C A33C | 1900 ± 440 µM |
| A15C A39G | 2880 ± 2600 µM |
| A15C U56G | 6870 ± 6000 µM |
| A15G A42G A53G | 276 ± 200 µM |
| A15G A42U | 1410 ± 570 µM |
| A15G C16G C71G | 354 ± 280 µM |
| A15G C58A C70U | 1260 ± 1100 µM |

Variants of: B1
Assay: self-cleavage kobs at 2500 uM GlcN6P; higher = faster cleavage; RNA array
Details: with glucosamine-6-phosphate
Procedure, shortened: as §1

| Variant | self-cleavage kobs at 2500 uM GlcN6P |
| --- | --- |
| A12U A14G | 0.0625 ± 0.037 s⁻¹ |
| G13A C71A | 4.48e-05 ± 2.8e-05 s⁻¹ |
| G13A U47C | 2.2e-05 ± 2e-05 s⁻¹ |
| G13A U56A C67A U69G | 5.56e-05 ± 3.3e-05 s⁻¹ |
| G13U C68G | 3.01e-05 ± 1.7e-05 s⁻¹ |
| A15C U30C U31G U69G | 3.5e-05 ± 2.2e-05 s⁻¹ |
| A15C U57C | 1.75e-05 ± 1e-05 s⁻¹ |
| A15G A42G A53G | 0.0159 ± 0.015 s⁻¹ |

Variants of: B1
Assay: self-cleavage kobs at 160 uM GlcN6P; higher = faster cleavage; RNA array
Details: with glucosamine-6-phosphate
Procedure, shortened: as §1

| Variant | self-cleavage kobs at 160 uM GlcN6P |
| --- | --- |
| A12U A33U | 1.28e-05 ± 1.2e-05 s⁻¹ |
| A12U C50U | 2.38e-05 ± 2.2e-05 s⁻¹ |
| G13U A15G G32A C70G | 2.86e-05 ± 1.7e-05 s⁻¹ |

Variants of: B1
Assay: self-cleavage kobs at 10000 uM GlcN6P; higher = faster cleavage; RNA array
Details: with glucosamine-6-phosphate
Procedure, shortened: as §1

| Variant | self-cleavage kobs at 10000 uM GlcN6P |
| --- | --- |
| G13A C68G C71G | 2.81e-05 ± 1.6e-05 s⁻¹ |
| A15C U30C U31G U69G | 1.94e-05 ± 1.7e-05 s⁻¹ |
| A15G A42G A53G | 0.0698 ± 0.038 s⁻¹ |

Variants of: B1
Assay: self-cleavage kobs at 640 uM GlcN6P; higher = faster cleavage; RNA array
Details: with glucosamine-6-phosphate
Procedure, shortened: as §1

| Variant | self-cleavage kobs at 640 uM GlcN6P |
| --- | --- |
| G13U C68G | 1.87e-05 ± 1.7e-05 s⁻¹ |
| A14U G66C | 2.31e-05 ± 1.4e-05 s⁻¹ |
| A15C U57C | 2.06e-05 ± 2e-05 s⁻¹ |
| A15G C16G C71G | 5.94e-05 ± 3.2e-05 s⁻¹ |

Variants of: B1
Assay: self-cleavage kobs at 40 uM GlcN6P; higher = faster cleavage; RNA array
Details: with glucosamine-6-phosphate
Procedure, shortened: as §1

| Variant | self-cleavage kobs at 40 uM GlcN6P |
| --- | --- |
| A14U U65A | 1.42e-05 ± 1.3e-05 s⁻¹ |
